Data published in PMC3991326, “Optimal Translational Termination Requires C4 Lysyl Hydroxylation of eRF1” (Molecular Cell, 2014).
These are yes or no findings as the source states them, for the method shown. Binding seen in cells or lysates may run through a third protein. For some assays here: Sequences can lack the tags named with a protein.

Amino acid sequences for entries named in this document (tags omitted).
UniProt Q9NWT6: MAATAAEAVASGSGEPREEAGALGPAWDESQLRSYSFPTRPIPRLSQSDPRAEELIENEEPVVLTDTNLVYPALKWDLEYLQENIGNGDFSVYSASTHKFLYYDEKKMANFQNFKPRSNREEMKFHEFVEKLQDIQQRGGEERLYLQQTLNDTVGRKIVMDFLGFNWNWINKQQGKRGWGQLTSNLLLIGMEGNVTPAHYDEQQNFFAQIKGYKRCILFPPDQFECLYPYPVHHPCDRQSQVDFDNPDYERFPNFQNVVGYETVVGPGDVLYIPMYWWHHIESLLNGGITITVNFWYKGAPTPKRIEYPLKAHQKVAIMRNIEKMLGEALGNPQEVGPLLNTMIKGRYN
UniProt P15170: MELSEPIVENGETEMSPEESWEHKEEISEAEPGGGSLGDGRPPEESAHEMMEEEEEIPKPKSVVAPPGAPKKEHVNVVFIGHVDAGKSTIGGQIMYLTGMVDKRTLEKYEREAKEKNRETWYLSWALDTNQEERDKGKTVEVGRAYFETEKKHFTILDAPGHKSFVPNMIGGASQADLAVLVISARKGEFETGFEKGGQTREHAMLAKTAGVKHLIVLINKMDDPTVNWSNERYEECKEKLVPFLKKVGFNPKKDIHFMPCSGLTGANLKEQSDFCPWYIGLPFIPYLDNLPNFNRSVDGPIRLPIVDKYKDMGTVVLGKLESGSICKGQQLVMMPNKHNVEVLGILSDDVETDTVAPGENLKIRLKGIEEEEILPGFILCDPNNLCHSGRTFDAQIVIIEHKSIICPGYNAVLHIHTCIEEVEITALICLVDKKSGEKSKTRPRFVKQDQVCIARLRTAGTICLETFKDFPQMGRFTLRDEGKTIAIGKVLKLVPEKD

Tests used:
[1] = biological target: FIH (factor inhibiting HIF), expressed in a HEK293T cell line as control of the anti-FLAG immunoprecipitation (UniProt Q9NWT6); assay: co-IP; anti-FLAG immunoprecipitates of cell extracts from HEK293T cell lines, immunoblotted for endogenous eRF1 and eRF3a
[2] = biological target: T1, FLAG-Jmjd4 H189A (inactive mutant, defective Fe(II) binding) (human) (UniProt Q9H9V9); assay: as above
T1 sequence: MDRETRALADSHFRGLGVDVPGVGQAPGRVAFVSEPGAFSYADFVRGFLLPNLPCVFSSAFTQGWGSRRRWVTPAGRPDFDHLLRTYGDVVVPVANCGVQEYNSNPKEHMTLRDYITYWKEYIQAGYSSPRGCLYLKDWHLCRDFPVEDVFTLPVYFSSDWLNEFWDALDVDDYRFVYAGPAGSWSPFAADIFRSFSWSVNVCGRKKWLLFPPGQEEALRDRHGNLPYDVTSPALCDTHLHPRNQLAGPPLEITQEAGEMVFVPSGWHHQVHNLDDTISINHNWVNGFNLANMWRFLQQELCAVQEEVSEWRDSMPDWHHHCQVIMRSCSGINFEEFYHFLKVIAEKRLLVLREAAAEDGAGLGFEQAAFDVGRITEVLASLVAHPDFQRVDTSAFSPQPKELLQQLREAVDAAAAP

binding [1]: no binding
binding [2]: no binding
Substance: eukaryotic release factor 3a (eRF3a), endogenous (from UniProt P15170 1-499)
